# Values of other authors in patent US11058661B2, “Compositions and methods for lowering triglycerides in a subject on concomitant statin therapy and having hsCRP levels of at least about 2 mg/L” (priority 2018, dated 2021).
# For at least one compound, name, drawing or mass did not settle the structure.
# System: major adverse CV events; hsCRP
# Conditions: 4 g per day; median follow-up 4.9 years; 95% CI 0.68-0.83; cited from earlier work
smiles,measurement,value
"CC/C=C\C/C=C\C/C=C\C/C=C\C/C=C\CCCC(=O)OCC [Icosapent Ethyl, ethyl eicosapentaenoate]","major adverse CV events, hazard ratio vs placebo",0.75
